{
  "source": "patent US20170016892A1",
  "about": "“LOCALIZED SURFACE PLASMON RESONANCE SENSING OF HUMAN PERFORMANCE BIOMARKERS USING SHORT PEPTIDE RECOGNITION ELEMENTS ON OPTICALLY ACTIVE METAL NANOSTRUCTURES” (Government of the United States as Represented by the …, priority 2015, published 2017)",
  "test": "distance-dependent refractive index sensitivity of AuNR nanotransducers (layer-by-layer polyelectrolyte assembly)",
  "data": [
    {"substance": "peptide-AuNR: Troponin I binding peptide with C-terminal cysteine (Seq. ID No. 2) conjugated to gold nanorods via Au—S linkage, adsorbed on filter paper (FYSHSFHENWPSC)", "values": [
      {"measurement": "distance-dependent refractive index sensitivity parameter (σ)", "setting": "at the dry-state thickness of the recognition layer", "result": "about 6.67 nm/nm"},
      {"measurement": "local refractive index sensitivity, higher than with antibody-based recognition elements", "setting": "peptide versus antibody recognition elements", "result": "~50", "unit": "%"}
    ]}
  ]
}
